In publication PMC9266683:
No constants are given. Whether binding was seen depends on the method and setting. Some results given as binding are weak or reduced against the parent protein; the word gives no strength. Sequences can lack the tags named with a protein.

Chains of the proteins cited; added tags and fusions are not shown. Residues count along the entry.
UniProt O04539, residues 1-420: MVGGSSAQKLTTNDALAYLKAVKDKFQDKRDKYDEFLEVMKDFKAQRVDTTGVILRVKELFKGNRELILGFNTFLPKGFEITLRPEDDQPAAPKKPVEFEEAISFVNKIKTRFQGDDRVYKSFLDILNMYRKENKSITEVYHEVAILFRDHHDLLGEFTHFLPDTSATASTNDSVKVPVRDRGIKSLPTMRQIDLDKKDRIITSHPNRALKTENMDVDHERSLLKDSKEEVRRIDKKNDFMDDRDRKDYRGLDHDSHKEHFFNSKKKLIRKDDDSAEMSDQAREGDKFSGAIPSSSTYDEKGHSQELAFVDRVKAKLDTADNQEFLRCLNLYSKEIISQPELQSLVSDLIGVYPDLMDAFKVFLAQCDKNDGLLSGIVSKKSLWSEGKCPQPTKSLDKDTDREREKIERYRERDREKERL
UniProt Q9XIE1: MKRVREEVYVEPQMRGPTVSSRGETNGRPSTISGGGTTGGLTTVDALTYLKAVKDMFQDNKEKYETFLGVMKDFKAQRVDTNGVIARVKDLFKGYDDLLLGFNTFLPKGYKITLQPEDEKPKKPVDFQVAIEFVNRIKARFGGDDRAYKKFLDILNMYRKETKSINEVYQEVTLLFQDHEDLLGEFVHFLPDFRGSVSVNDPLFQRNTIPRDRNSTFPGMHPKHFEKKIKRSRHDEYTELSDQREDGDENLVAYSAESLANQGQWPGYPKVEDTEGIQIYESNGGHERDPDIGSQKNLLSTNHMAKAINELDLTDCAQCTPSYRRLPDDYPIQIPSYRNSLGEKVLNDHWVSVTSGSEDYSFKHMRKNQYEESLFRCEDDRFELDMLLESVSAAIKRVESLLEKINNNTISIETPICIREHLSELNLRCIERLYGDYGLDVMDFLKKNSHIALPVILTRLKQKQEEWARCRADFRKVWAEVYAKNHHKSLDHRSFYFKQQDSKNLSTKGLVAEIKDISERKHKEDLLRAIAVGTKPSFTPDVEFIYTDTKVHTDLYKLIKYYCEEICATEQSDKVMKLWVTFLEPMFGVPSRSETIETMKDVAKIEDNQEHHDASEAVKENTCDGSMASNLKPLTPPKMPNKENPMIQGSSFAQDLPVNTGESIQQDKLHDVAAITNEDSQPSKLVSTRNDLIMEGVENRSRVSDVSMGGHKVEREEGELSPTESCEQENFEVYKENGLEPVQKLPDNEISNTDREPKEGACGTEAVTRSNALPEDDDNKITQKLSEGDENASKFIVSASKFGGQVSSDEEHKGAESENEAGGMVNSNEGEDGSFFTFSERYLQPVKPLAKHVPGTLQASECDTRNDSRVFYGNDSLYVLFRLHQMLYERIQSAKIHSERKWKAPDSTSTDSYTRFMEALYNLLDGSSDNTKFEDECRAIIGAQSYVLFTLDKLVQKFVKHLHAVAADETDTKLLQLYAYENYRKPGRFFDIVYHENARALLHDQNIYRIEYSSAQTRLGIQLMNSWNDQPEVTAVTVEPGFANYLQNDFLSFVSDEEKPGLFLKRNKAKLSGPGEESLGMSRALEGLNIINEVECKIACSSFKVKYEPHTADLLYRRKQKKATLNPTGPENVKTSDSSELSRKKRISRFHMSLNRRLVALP

Key:
Assay in all cases: two-hybrid; Matchmaker GAL4 two-hybrid system 3, yeast AH109; VAL1 constructs in pGADT7 (AD), SNL constructs in pGBKT7 (BD); growth on medium lacking Trp, Leu, His and Ade, 3-5 d at 30 °C
[1] = target: SNL4-PAH (aa 1–420), fused to the GAL4 binding domain (Arabidopsis thaliana) (UniProt O04539)
[2] = target: SNL5 (SIN3-LIKE 5), full length, fused to the GAL4 binding domain (Arabidopsis thaliana) (UniProt Q9XIE1)
[3] = target: T1, SNL1 (SIN3-LIKE 1), full length, fused to the GAL4 binding domain (Arabidopsis thaliana) (UniProt Q9SRH9)
T1 sequence: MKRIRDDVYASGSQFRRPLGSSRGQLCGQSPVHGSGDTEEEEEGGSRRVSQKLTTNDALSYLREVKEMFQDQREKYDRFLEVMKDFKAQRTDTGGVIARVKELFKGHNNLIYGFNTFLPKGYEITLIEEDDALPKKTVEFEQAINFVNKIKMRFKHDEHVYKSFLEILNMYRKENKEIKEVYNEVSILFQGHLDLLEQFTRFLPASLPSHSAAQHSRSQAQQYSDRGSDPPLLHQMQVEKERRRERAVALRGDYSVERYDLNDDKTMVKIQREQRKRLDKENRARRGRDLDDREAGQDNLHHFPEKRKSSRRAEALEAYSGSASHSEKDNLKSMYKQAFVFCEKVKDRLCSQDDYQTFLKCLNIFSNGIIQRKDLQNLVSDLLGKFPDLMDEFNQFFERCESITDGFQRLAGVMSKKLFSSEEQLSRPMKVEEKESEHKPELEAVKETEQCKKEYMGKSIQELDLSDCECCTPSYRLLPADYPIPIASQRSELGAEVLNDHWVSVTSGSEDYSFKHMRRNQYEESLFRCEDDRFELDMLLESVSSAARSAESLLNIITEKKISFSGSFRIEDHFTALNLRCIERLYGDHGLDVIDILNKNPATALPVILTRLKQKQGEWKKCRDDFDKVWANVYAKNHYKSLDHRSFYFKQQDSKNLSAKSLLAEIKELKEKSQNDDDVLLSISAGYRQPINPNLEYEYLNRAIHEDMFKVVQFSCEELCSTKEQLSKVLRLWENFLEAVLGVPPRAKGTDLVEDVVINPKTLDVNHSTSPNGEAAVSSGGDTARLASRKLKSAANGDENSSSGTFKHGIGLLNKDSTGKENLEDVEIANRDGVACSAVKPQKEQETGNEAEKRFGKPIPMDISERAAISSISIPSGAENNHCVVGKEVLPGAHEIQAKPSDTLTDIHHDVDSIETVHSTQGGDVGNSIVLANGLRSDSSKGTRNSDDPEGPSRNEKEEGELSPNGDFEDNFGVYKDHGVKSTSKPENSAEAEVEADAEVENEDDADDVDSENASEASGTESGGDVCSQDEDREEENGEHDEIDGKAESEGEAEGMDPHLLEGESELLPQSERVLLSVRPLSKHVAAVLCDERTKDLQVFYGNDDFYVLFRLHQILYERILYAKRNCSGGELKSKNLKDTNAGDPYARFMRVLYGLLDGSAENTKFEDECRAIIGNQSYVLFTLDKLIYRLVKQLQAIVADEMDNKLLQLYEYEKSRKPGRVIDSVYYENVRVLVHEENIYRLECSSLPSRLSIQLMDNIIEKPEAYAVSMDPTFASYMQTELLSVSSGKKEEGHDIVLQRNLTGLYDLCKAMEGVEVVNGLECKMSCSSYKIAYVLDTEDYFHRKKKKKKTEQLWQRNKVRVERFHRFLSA

[4] = target: T2, SNL1-PAH (aa 1–450), fused to the GAL4 binding domain (Arabidopsis thaliana) (UniProt Q9SRH9)
T2 sequence: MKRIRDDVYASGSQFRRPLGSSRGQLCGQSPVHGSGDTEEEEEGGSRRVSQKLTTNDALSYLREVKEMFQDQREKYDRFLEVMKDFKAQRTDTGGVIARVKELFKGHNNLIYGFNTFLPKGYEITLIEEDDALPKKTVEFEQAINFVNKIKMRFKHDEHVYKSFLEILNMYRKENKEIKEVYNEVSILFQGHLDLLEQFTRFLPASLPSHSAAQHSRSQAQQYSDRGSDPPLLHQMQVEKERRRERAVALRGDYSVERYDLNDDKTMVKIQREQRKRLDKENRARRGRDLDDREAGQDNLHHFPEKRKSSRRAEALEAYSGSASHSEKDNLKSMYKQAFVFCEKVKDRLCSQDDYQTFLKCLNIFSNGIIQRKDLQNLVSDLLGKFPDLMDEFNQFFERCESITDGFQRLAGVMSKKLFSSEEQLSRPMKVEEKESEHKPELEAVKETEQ

[5] = target: T3, SNL2-PAH (aa 1–430), fused to the GAL4 binding domain (Arabidopsis thaliana) (UniProt Q9LFQ3)
T3 sequence: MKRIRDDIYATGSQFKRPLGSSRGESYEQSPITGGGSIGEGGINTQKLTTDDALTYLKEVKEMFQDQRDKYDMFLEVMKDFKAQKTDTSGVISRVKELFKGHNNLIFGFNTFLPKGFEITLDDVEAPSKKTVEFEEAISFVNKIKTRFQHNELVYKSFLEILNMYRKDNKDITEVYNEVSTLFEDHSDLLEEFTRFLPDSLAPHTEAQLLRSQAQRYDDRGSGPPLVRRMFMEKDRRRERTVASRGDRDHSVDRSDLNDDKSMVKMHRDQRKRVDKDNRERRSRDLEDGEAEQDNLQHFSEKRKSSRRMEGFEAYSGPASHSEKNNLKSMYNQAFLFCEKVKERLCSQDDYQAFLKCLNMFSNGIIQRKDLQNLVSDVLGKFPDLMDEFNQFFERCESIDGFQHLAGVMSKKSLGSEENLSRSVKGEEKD

Measured: binding

B1: VAL1 (VIVIPAROUS1/ABSCISIC ACID …3-LIKE1), full length, fused to the GAL4 activating domain (protein, UniProt Q8W4L5 1-790)
chain: MFEVKMGSKMCMNASCGTTSTVEWKKGWPLRSGLLADLCYRCGSAYESSLFCEQFHKDQSGWRECYLCSKRLHCGCIASKVTIELMDYGGVGCSTCACCHQLNLNTRGENPGVFSRLPMKTLADRQHVNGESGGRNEGDLFSQPLVMGGDKREEFMPHRGFGKLMSPESTTTGHRLDAAGEMHESSPLQPSLNMGLAVNPFSPSFATEAVEGMKHISPSQSNMVHCSASNILQKPSRPAISTPPVASKSAQARIGRPPVEGRGRGHLLPRYWPKYTDKEVQQISGNLNLNIVPLFEKTLSASDAGRIGRLVLPKACAEAYFPPISQSEGIPLKIQDVRGREWTFQFRYWPNNNSRMYVLEGVTPCIQSMMLQAGDTVTFSRVDPGGKLIMGSRKAANAGDMQGCGLTNGTSTEDTSSSGVTENPPSINGSSCISLIPKELNGMPENLNSETNGGRIGDDPTRVKEKKRTRTIGAKNKRLLLHSEESMELRLTWEEAQDLLRPSPSVKPTIVVIEEQEIEEYDEPPVFGKRTIVTTKPSGEQERWATCDDCSKWRRLPVDALLSFKWTCIDNVWDVSRCSCSAPEESLKELENVLKVGREHKKRRTGESQAAKSQQEPCGLDALASAAVLGDTIGEPEVATTTRHPRHRAGCSCIVCIQPPSGKGRHKPTCGCTVCSTVKRRFKTLMMRRKKKQLERDVTAAEDKKKKDMELAESDKSKEEKEVNTARIDLNSDPYNKEDVEAVAVEKEESRKRAIGQCSGVVAQDASDVLGVTELEGEGKNVREEPRVSS
binds: all assays above

B2: VAL1-CW (aa 458–673), fused to the GAL4 activating domain (domain or fragment, UniProt Q8W4L5 458-673)
chain: DDPTRVKEKKRTRTIGAKNKRLLLHSEESMELRLTWEEAQDLLRPSPSVKPTIVVIEEQEIEEYDEPPVFGKRTIVTTKPSGEQERWATCDDCSKWRRLPVDALLSFKWTCIDNVWDVSRCSCSAPEESLKELENVLKVGREHKKRRTGESQAAKSQQEPCGLDALASAAVLGDTIGEPEVATTTRHPRHRAGCSCIVCIQPPSGKGRHKPTCGCT
binds: all assays above
